Test results reported in PMC4315436.
No constants are given. Whether binding was seen depends on the method and setting. Some results given as binding are weak or reduced against the parent protein; the word gives no strength.

T1: PduV (UniProt Q9XDM6)
T1 sequence: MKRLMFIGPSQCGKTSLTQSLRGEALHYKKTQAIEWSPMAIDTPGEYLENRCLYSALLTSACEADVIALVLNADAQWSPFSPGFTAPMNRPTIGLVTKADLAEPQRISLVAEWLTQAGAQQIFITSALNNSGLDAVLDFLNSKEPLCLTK

T2: PduU (UniProt P0A1D1)
T2 sequence: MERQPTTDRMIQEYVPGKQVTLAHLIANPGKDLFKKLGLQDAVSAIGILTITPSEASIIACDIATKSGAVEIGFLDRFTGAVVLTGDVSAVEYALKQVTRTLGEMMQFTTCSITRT


How the values were obtained:
PduV = molecular target: T1, PduV; experiment: two-hybrid; BacterioMatch II bacterial two-hybrid in E. coli reporter cells; bait in pBT as λcI fusion, prey in pTRG as RNAPα fusion; 30 ng each of bait and prey vector; HIS3 reporter, cfu on selective screening medium with 3-AT; three repeats, mean ± 1 SD
PduU = molecular target: T2, PduU; experiment: two-hybrid; BacterioMatch II bacterial two-hybrid; second reporter gene aadA, streptomycin resistance of co-transformed E. coli

| binding (PduV) | binding (PduU) | Binder |
| --- | --- | --- |
| binds | – | PduU (protein, UniProt P0A1D1 1-116) MERQPTTDRMIQEYVPGKQVTLAHLIANPGKDLFKKLGLQDAVSAIGILTITPSEASIIACDIATKSGAVEIGFLDRFTGAVVLTGDVSAVEYALKQVTRTLGEMMQFTTCSITRT |
| – | binds | PduV (protein, UniProt Q9XDM6 1-150) MKRLMFIGPSQCGKTSLTQSLRGEALHYKKTQAIEWSPMAIDTPGEYLENRCLYSALLTSACEADVIALVLNADAQWSPFSPGFTAPMNRPTIGLVTKADLAEPQRISLVAEWLTQAGAQQIFITSALNNSGLDAVLDFLNSKEPLCLTK |
